Data taken from the supplement of paper PMC8616043.
Where a name gives a salt, the structure may show the parent alone. The list shows a part of the results. This data set is noisy: repeats of one test often differ as much as different tests do.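 The cells are human U-2 OS cells that stably carry a GFP sensor with a nuclear import signal and a classical export signal. They were transfected to make PR50, a 50-repeat proline–arginine dipeptide protein from the ALS/FTD gene C9ORF72. Each well's nuclear-minus-cytoplasm GFP signal was scaled from in-plate DMSO (low) to PR-only wells (high), then scored against the other test wells on the plate; compounds scoring well below zero were called hits that reverse the PR effect.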

System: U-2 OS NCT-C biosensor cells expressing PR50
Assay: Z-score of normalised NCT-C biosensor translocation index in PR50-expressing cells; higher = more nuclear biosensor (more disrupted nuclear export)
Conditions: 3 µM; 24 h

| SMILES | Z-score |
| --- | --- |
| C1COC(NC(C2CC2)C2CC2)=N1 [Rilmenidine hemifumarate] | inactive: -1.07 |
| OC[C@H]1O[C@@H](n2cnc3c(NC4CCCC4)ncnc32)[C@H](O)[C@@H]1O [N6-  Cyclopentyladeno sine] | inactive: -0.439 |
| C[N+](C)(C)CC=O [Betaine aldehyde chloride] | inactive: 2.61 |
| O[C@H]1CCN2Cc3ccccc3N=C12 [Vasicine] | inactive: 0.327 |
| O=C(O)c1cn(C2CC2)c2cc(N3CCNCC3)c(F)cc2c1=O [Ciprofloxacin] | inactive: 0.332 |
| CC1=CC(=O)C(C(C)C)=CC1=O [Thymoquinone] | inactive: -0.731 |
| O=C(/C=C/c1ccc(O)cc1)CC(=O)/C=C/c1ccc(O)cc1 [Bis demethoxycurcumin] | inactive: 1.68 |
| COc1ccccc1Oc1c(NS(=O)(=O)c2ccc(C(C)(C)C)cc2)nc(-c2ncccn2)nc1OCCO [Bosentan] | inactive: 0.929 |
| O=C(O)Cc1c[nH]c2ccccc12 [Indole-3-acetic acid] | inactive: -0.413 |
| CN(C)CCC=C1c2ccccc2COc2ccccc21 [Doxepin hydrochloride] | inactive: -0.132 |
| CN(C)CCC=C1c2ccccc2COc2ccccc21 [Doxepin·HCl] | inactive: -0.401 |
| CC(C)[N+](C)(CCOC(=O)C1c2ccccc2Oc2ccccc21)C(C)C [Propantheline bromide] | inactive: 0.751 |
| CCN(c1nc(N)c(C(=O)NC(=N)N)nc1Cl)C(C)C [5-(N-Ethyl-N- isopropyl) amiloride] | inactive: 0.303 |
| O=C(O)Cc1c[nH]c2ccc(O)cc12 [5-Hydroxyindol acetic acid] | inactive: 0.219 |
| CCN(CC)CCOC(=O)c1cc(Cl)c(N)cc1OC [SDZ-205,557  hydrochloride] | inactive: -1.05 |
| NC/C=C/C(=O)O [(E)-4-amino-2-butenoic acid] | inactive: -0.878 |
| CC(=O)N[C@@H](Cc1c[nH]c2ccccc12)C(=O)OCc1cc(C(F)(F)F)cc(C(F)(F)F)c1 | inactive: 0.169 |
| O=C(N[C@H](CO)[C@H](O)c1ccc([N+](=O)[O-])cc1)C(Cl)Cl [Chloramphenicol] | inactive: 0.74 |
| CCC[C@@H]1C[C@@H](C(=O)N[C@@H]([C@H]2O[C@H](SC)[C@H](O)[C@@H](O)[C@H]2O)[C@H](C)Cl)N(C)C1 [Clindamycin·HCl] | inactive: 2.69 |
| Cn1cnc2c1c(=O)[nH]c(=O)n2C [Theobromine] | inactive: -0.565 |
| CCN(CC)CCNC(=O)c1cc(Cl)c(N)cc1OC [Metoclopramide·HCl] | inactive: -0.349 |
| CCN(CC)CCNC(=O)c1cc(Cl)c(N)cc1OC [Metoclopramide hydrochloride] | inactive: -0.636 |
| NCCCNCCCCNCCCN [Spermine tetrahydrochloride] | inactive: -0.329 |

| SMILES | Z-score |
| --- | --- |
| CN(C)C/C=C(/c1ccc(Br)cc1)c1cccnc1 [Zimelidine dihydrochloride] | inactive: 0.181 |
| COc1ccc(O)cc1 [Mequinol] | inactive: 0.474 |
| Cc1c(-c2ccccc2)oc2c(C(=O)OCCN3CCCCC3)cccc2c1=O [Flavoxate·HCl] | inactive: 2 |
| C[C@@H]1NC(=O)[C@@H](N)CNC(=O)[C@H](C2CCNC(=N)N2)NC(=O)/C(=C/NC(N)=O)NC(=O)[C@H](CNC(=O)CC(N)CCCN)NC1=O.N=C1NCC[C@H]([C@@H]2NC(=O)/C(=C/NC(N)=O)NC(=O)[C@H](CNC(=O)C[C@@H](N)CCCN)NC(=O)[C@H](CO)NC(=O)[C@@H](N)CNC2=O)N1 [Capreomycin Disulfate] | inactive: 0.0357 |
| C[C@@H]1NC(=O)[C@@H](N)CNC(=O)[C@H](C2CCNC(=N)N2)NC(=O)/C(=C/NC(N)=O)NC(=O)[C@H](CNC(=O)CC(N)CCCN)NC1=O.N=C1NCC[C@H]([C@@H]2NC(=O)/C(=C/NC(N)=O)NC(=O)[C@H](CNC(=O)C[C@@H](N)CCCN)NC(=O)[C@H](CO)NC(=O)[C@@H](N)CNC2=O)N1 [Capreomycin] | inactive: 0.805 |
| CC1(C)O[C@H]2CC(=O)OC[C@]23[C@H]2CC[C@@]4(C)[C@H](c5ccoc5)OC(=O)[C@H]5O[C@]54[C@]2(C)C(=O)C[C@@H]13 [Limonin] | inactive: -0.706 |
| OC[C@H]1NC[C@H](O)[C@@H](O)[C@@H]1O [1-Deoxynojirimycin hydrochloride] | inactive: -0.557 |
| Cc1cc(C)c(CNC(=O)c2cc(-c3ccc(CN4CCOCC4)cc3)cc3c2cnn3C2CCCC2)c(=O)[nH]1 | inactive: -1.91 |
| Cn1c(=O)c2[nH]c(-c3ccccc3)nc2n(C)c1=O [1,3-Dimethyl-8-phenylxanthine] | inactive: -0.48 |
| CC(C)Nc1cccnc1N1CCN(C(=O)c2cc3cc(NS(C)(=O)=O)ccc3[nH]2)CC1 [Delavirdine Mesylate] | inactive: 0.895 |
| Cc1onc(-c2ccccc2Cl)c1C(=O)N[C@@H]1C(=O)N2[C@@H]1SC(C)(C)[C@@H]2C(=O)O [Cloxacillin·Na] | inactive: -0.0263 |
| COc1ccc(Cn2ccc3ccc(C(=O)NO)cc32)cc1 | inactive: -1.5 |
| C#Cc1cccc(Nc2ncnc3cc(OCCOC)c(OCCOC)cc23)c1 [Erlotinib] | inactive: -0.299 |
| CN[C@H](CC(=O)O)C(=O)O [N-Methyl-D- aspartic acid] | inactive: 0.141 |
| O=C1C[C@@H](c2ccc(O)c(O)c2)Oc2cc(O)cc(O)c21 [Eriodictyol] | inactive: -0.58 |
| CN[C@@H]1[C@H](O)[C@H](NC)[C@H]2O[C@@]3(O)C(=O)C[C@@H](C)O[C@H]3O[C@@H]2[C@H]1O [Spectinomycin] | inactive: -0.624 |
| CN[C@@H]1[C@H](O)[C@H](NC)[C@H]2O[C@@]3(O)C(=O)C[C@@H](C)O[C@H]3O[C@@H]2[C@H]1O [Spectinomycin·2HCl Pentahydrate] | inactive: 0.128 |
| O=C1NC(=O)C(Cc2ccc3cc(OCc4ccccc4F)ccc3c2)S1 (configuration not stated) | inactive: 0.35 |
| NC(N)=NC(N)=Nc1cccc(Cl)c1 [1-(m-Chlorophenyl)-biguanide hydrochloride] | inactive: -1.17 |
| CC(C(=O)O)c1ccc(-c2ccccc2)c(F)c1 (configuration not stated) [Flurbiprofen] | inactive: 0.71 |
| NC(=O)c1cn(Cc2c(F)cccc2F)nn1 [Rufinamide] | inactive: 0.0205 |
| Cc1ccccc1C(=O)Nc1ccc(C(=O)N2CCCC(O)c3cc(Cl)ccc32)c(C)c1 (configuration not stated) [Tolvaptan] | inactive: -0.62 |
| CC[N+](CC)(CC)CCOc1ccc(/C=C/c2ccccc2)cc1 | inactive: -0.683 |

Looked up one by one from the list above (two):

| SMILES | Z-score |
| --- | --- |
| O=C1C[C@@H](c2ccc(O)c(O)c2)Oc2cc(O)cc(O)c21 [Eriodictyol] | inactive: -0.58 |
| Cc1c(-c2ccccc2)oc2c(C(=O)OCCN3CCCCC3)cccc2c1=O [Flavoxate·HCl] | inactive: 2 |

Further entries follow:

| SMILES | Z-score |
| --- | --- |
| CC(=O)O[C@H]1CC[C@@]2(C)C(=CC[C@@H]3[C@@H]2CC[C@]2(C)C(c4cccnc4)=CC[C@@H]32)C1 [Abiraterone acetate] | inactive: -0.959 |
| Nc1nc2[nH]cnc2c(=S)[nH]1 [Thioguanine (6-Thioguanine)] | inactive: -0.149 |
| O=C(Nc1cccc(C(F)(F)F)c1)Nc1cc(S(=O)(=O)NC2CC2)ccc1-c1ccsc1 | inactive: -1.13 |
| Cc1cccc(C)c1NC(=O)C(C)N (configuration not stated) [Tocainide hydrochloride] | inactive: -0.199 |
| CC(=O)Nc1ccc(C(=O)Nc2ccc(F)cc2N)cc1 | inactive: -0.885 |
| Oc1c(Cl)cc(Cl)c(Cl)c1Cc1c(O)c(Cl)cc(Cl)c1Cl [Hexachlorophene] | inactive: 0.894 |
| CCCc1c(-c2ccc(O)cc2)nn(-c2ccc(O)cc2)c1-c1ccc(O)cc1 [1,3,5-tris(4- hydroxyphenyl)-4- propyl-1H- pyrazole] | inactive: -0.918 |
| CC1=CC[C@@]2(C)CC[C@@](O)(C(C)C)[C@@H]2[C@@H](OC(=O)c2ccc(O)cc2)C1 [Ferutinin] | inactive: 0.0222 |
| CCCCC[C@H](O)/C=C/C1=C(CCCCCCC(=O)O)C(=O)CC1 [Prostaglandin B1] | inactive: -0.974 |
| C=C1C(=O)[C@]23[C@H](O)[C@H]1CC[C@H]2[C@@]12CO[C@]3(O)[C@@H](O)[C@@H]1C(C)(C)CC[C@@H]2O [Oridonin] | inactive: 2.13 |
| Oc1ccc(/C=C/c2cc(O)cc(O)c2)cc1 [Resveratrol] | inactive: -1.25 |
| CCN(CC)Cc1ccc(C(=O)N(CCc2ccccc2OC)[C@@H]2CCNC2)cc1 | inactive: 0.731 |
| CCOC(=O)C1=C(COCCN)NC(C)=C(C(=O)OC)C1c1ccccc1Cl (configuration not stated) [Amlodipine] | inactive: -0.103 |
| COc1ccc(/C=C/C(=O)Nc2ccccc2C(=O)O)cc1OC [Tranilast] | inactive: -0.267 |
| CCN(CC)CCNC(=O)c1c(C)[nH]c(/C=C2\C(=O)Nc3ccc(F)cc32)c1C [Sunitinib Malate] | inactive: -0.752 |
| Cc1cccc(C)c1OCC(C)N (configuration not stated) [Mexiletine hydrochloride] | inactive: 0.236 |
| Cc1cccc(C)c1OCC(C)N (configuration not stated) [Mexiletine·HCl] | inactive: -0.438 |
| O=C(Nc1ccc(Oc2ccc(Cl)cn2)c(Cl)c1)c1ccccn1 | inactive: -1.13 |
| COc1ccccc1N1CCN(CCCCN2C(=O)c3ccccc3C2=O)CC1 [NAN-190 hydrobromide] | inactive: 0.949 |
| CC[C@]1(O)C[C@H]2CN(CCc3c([nH]c4ccccc34)[C@@](C(=O)OC)(c3cc4c(cc3OC)N(C=O)[C@H]3[C@@](O)(C(=O)OC)[C@H](OC(C)=O)[C@]5(CC)C=CCN6CC[C@]43[C@@H]65)C2)C1 [Vincristine sulfate salt] | inactive: 1.09 |
| CC[C@]1(O)C[C@H]2CN(CCc3c([nH]c4ccccc34)[C@@](C(=O)OC)(c3cc4c(cc3OC)N(C=O)[C@H]3[C@@](O)(C(=O)OC)[C@H](OC(C)=O)[C@]5(CC)C=CCN6CC[C@]43[C@@H]65)C2)C1 [Vincristine Sulfate] | inactive: 0.971 |

Not a retest: entries from further up.

| SMILES | Z-score |
| --- | --- |
| NC(=O)c1cn(Cc2c(F)cccc2F)nn1 [Rufinamide] | inactive: 0.0205 |
| Cc1ccccc1C(=O)Nc1ccc(C(=O)N2CCCC(O)c3cc(Cl)ccc32)c(C)c1 (configuration not stated) [Tolvaptan] | inactive: -0.62 |
| CC[N+](CC)(CC)CCOc1ccc(/C=C/c2ccccc2)cc1 | inactive: -0.683 |
